Screen size: about 52,000 sequences; about 210 (0.4%) were called active.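 Rule for the calls: active = gene whose silencing raises cell survival under the drug, median off-target-corrected z-score across its silencing RNAs 2 or more; inactive = the rest.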 The list shows a part of the results.

The nature of this assay: Resistance to Poly (ADP-Ribose) Polymerase inhibitor: Gene Identification via Genome-wide siRNA Screen. To be noted: mouse BRCA2 R2336H ES cells, olaparib, CellTiter-Glo viability; hits give high values. Put shortly:
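Mouse BRCA2 R2336H ES cells were reverse-transfected with siRNA (20 nM final), treated at 48 h with 500 nM olaparib, and read by CellTiter-Glo after 72 h. Scores: MAD-based z per siRNA, median per gene, seed off-target correction.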
As to GGUCUGCUUUGUGCUGAUGTT against Olfr983, the z-score was inactive: -0.583.
In the case of CGAAGUUUGACACCUAUAUTT against Tinf2 it was inactive: -0.431; in that of GACAACUUUUCCCUGUCAUTT against Prm3, inactive: 0.665.
The value for GCAAACCUGACAAAAAUAGTT against BC027057 was inactive: 0.107; that for CCACCACAGAAUGCAUUACTT against V1rd11 was inactive: -2.72; that for GGCCAUCAAACACCAGGUGTT against Plxnb2 was inactive: -1.43.
Turning to GGUAAACGGAUGGAAUGGGTT against Gspt2, the z-score was inactive: 0.354.
In the case of CCGUCACUUUUAACCAUGUTT against Apeg1 it was inactive: 1.88; in that of “GGCAUAACAGAGAUGAUGATT against 4930506L13Rik”, inactive: -1.05.
In the case of CCAAUACCCUCAAGAUUCUTT against Itih5 it was inactive: 0.59; in that of GGUGGAAAGGAACAUUGUGTT against Ppl, inactive: -1.03.
Consider GCGUGUGACCAGAUUCGUCTT against Slc1a2, for which the z-score was inactive: -0.152.
The value for GCUAAGUUGCUUGUCUUUATT against Acox1 was inactive: 0.674; that for GUACCAGAAGUGAGUUCAGTT against Leap2 was inactive: -3.32.
As to GGUCAUGCUCAUCUCCUCCTT against Nelf, the z-score is inactive: -0.596.
In the case of “GGAUUUCAUUAAGCUGAAGTT against D930010J01Rik” it was inactive: 2.52.
Take CCACUGUGCUCAAUUUGCATT against Slc9a2: the z-score was inactive: 0.696.
The value for GGAAUAAGUACCUCAUCUUTT against Fbxw5 was inactive: -2.58; that for CCUAUUCAGUCGCUCAGAGTT against Pacs1 was inactive: -0.123.
In the case of CCUGCAUUUACUCAACUUGTT against Snrpe it was inactive: -2.84; in that of GGUGAACUGUAAUGGCUUCTT against Smyd2, inactive: -0.123; in that of GCAGUGUUCGAAGAUAUGATT against Ehhadh, inactive: 2.28.
The value for GGAUGCACUGAUUUGGUUATT against Ptger2 was inactive: 1.11.
As for GGCUACGCUUUUAUUUCCCTT against Jak3, the z-score was inactive: 1.94.
As to “GGUGGUAUUGAAAAGGAAATT against B930093C12Rik”, the z-score is inactive: 0.752.
The value for GGCGAAUUGAAGGAGACCATT against Tmod3 was inactive: 1.73.
In the case of GCGAAUGGAAAAUGAAGAUTT against BC031575 it was inactive: -1.39.
The value for GGCCUUGAUAAUGUUCGACTT against Coq6 was inactive: 1.37; that for GGGUAACAGAUGAAGGGUCTT against Synpo2l was inactive: 3.5; that for “CGACCAUACGAAUGCGGCATT against 6430526N21Rik” was inactive: -0.647.
Take GGAAUAGGAAAUUAGCACATT against Thnsl1: the z-score is inactive: -0.738.
“GGCAAAUAAAUUCAGCAAGTT against D19Bwg1357e”: the z-score was inactive: 0.164.
In the case of “GGAAAUGAAUAUGAACCUUTT against 5330408M12Rik” it was inactive: -0.0836; in that of GCUGAGUCUCAUCAAAGUCTT against Qtrtd1, inactive: -0.457; in that of GACUUCUCCUGACAGGCUGTT against Olfr61, inactive: -0.941.
The value for GCCCGCGUUGCCUAAGUAUTT against Elavl4 was inactive: -2.04; that for GGCCGUGAAACACUUUCGUTT against Lgi3 was inactive: -0.552.
In the case of CCUCGCUGUAUCUUAACAUTT against Dppa2 it was inactive: -0.883; in that of CCCAGAAAUAAUAGGGUCGTT against BC037393, inactive: -0.478; in that of “GGAUGUGAUUGAUAUUGAATT against 2510004L20Rik”, inactive: 1.48.
With GGAUGUGGAUGAAUGCAGATT against Masp2, the z-score is inactive: -0.454.
The value for GGUUUACCAUGCAUAUUAUTT against Txnrd2 was inactive: -0.239.
The value for GCCAUAUGGGCAGAUGUUUTT against Sec24b was inactive: -0.0293.
As for GGAGCUGAUCGAGAAGAUCTT against Xrcc3, the z-score is inactive: 0.134.
In the case of GCCAUCGAUGUACUGAGCUTT against Psme2, the z-score is inactive: -0.265.
The value for CGUGGUUGUACAUAUUUGUTT against Trip10 was inactive: -0.525; that for GGCCAGAGAAGAUUACUUUTT against Jub was inactive: 0.0963.
The value for “CGAUGAUACAGACAGCAACTT against 5730509C05Rik” was inactive: 0.498.
For the sequence GGAAGGAAGUGGGUUACUUTT against Olfr156, the z-score was inactive: -0.626.
The value for CCAGGAUCACCAAAAUGGATT against Slit3 was inactive: -1.62; that for GGGUGAUGUCACUGUCAUCTT against Gabrg2 was inactive: -0.57.
The value for GGUGCUCAAAUCCUCUUGATT against Ctps was inactive: -2.76; that for GGUGUUUAAUAAUGUUGUCTT against Olfr976 was inactive: 0.153.
In the case of GGAGAUAUUCUGGUAUGACTT against Orc1l, the z-score was inactive: 0.0825.
In the case of GCCUGAGAAGAUAGACUGATT against Pigs it was inactive: -1.13; in that of GGACAAUCAACUAAAGCUCTT against Stab2, inactive: 2.42; in that of GGAUGGUCGAAACAAUAACTT against Stk32b, inactive: 1.76.
The value for “GGAGCUAUUGACACAAGUCTT against E230025N22” was inactive: -3.38.
With GUUAUGGAGCAAUGUCUAUTT against Olfr1248, the z-score was inactive: -0.524.
GGAGAUGAAGAAGAUAUUGTT against Smoc2: the z-score is inactive: -1.04.
On to “GCCUGUACAGACUACGCAGTT against 2310061N23Rik”, for which the z-score was inactive: 1.85.
For GAAGGGACUUCAAAGUUGATT against Ndufb10, the z-score was inactive: 0.289.
In the case of GGCAUACACCACUUAGUAATT against Sumo2 it was inactive: -1.11; in that of GGAAGAUUAAGCGAGAUAUTT against Rnf146, inactive: -1.41.
In the case of GGGUUGCUACUCACAAUGUTT against Syngr2 it was inactive: -0.297; in that of AAAAGAUGCAUGUCUCCUUTT against Hbq1, inactive: 1.01.
As to GGAUGAGAACAGCAACCAGTT against Bcl7b, the z-score was inactive: -1.78.

These data come from PubChem BioAssay AID1347423 (Functional Genomics Laboratory (NCATS/FGL), 2020).
